Values from PubChem BioAssay AID602196 (INSERM, 2012)
Screen: 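Knock-downs that protect lung cancer cells from cisplatin or sensitise them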. System: human A549 lung cancer cells. Reagent: siRNA pair against human genes. Timing: 48 h transfection before cisplatin; time from cisplatin to read-out not stated. Treatment: cisplatin at a dose killing half of control-siRNA cells; exact dose and duration not given. Read-out: 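Cisplatin cell death as a shift from the 50% death seen with control siRNA; siRNAs toxic or growth-blocking alone scored 0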. Scale: two-siRNA summed score (-2 to +2): higher = both siRNAs protect from cisplatin killing; -2 means both sensitise. Call rule: 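siRNAs harmful alone (LDH or WST-1) get 0; others get +1 for less and -1 for more cisplatin killing; genes are active when the two siRNAs give the same sign, summing to ±2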. Calls: active = both siRNAs shift cisplatin killing the same way; inactive = no consistent shift, or siRNA harmful alone.
The deposit covers about 23,000 reagents; this is a part drawn at random. Of all reagents, 455 (2%) are marked active. 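Active includes both protection and sensitisation; some change values fall well beyond the stated -50 to +50 range.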 Further read-outs or replicates are left out here. Reagent sequences are not shown. Not stated in the record: the amount of reagent.

Knock-down of LOC401136 gave: two-siRNA summed score (-2 to +2) = 0; inactive.
Against CREB3L4, the values are two-siRNA summed score (-2 to +2) = 0; inactive.
LOC341784 showed two-siRNA summed score (-2 to +2) = 0; inactive.
After knock-down of SLC18B1, the screen gave two-siRNA summed score (-2 to +2) = 0; inactive.
Silencing of HSD17B6 came out at: two-siRNA summed score (-2 to +2) = -1; inactive.
Silencing of SELENBP1 resulted in: two-siRNA summed score (-2 to +2) = -1; inactive.
With knock-down of SGK1 the results were two-siRNA summed score (-2 to +2) = 1; inactive.
Silencing of UBXN1 gave: two-siRNA summed score (-2 to +2) = 0; inactive.
After knock-down of TXNDC17, the record shows two-siRNA summed score (-2 to +2) = 1; inactive.
With knock-down of LOC253970 the results were two-siRNA summed score (-2 to +2) = 0; inactive.
After knock-down of PLCL1 the results were two-siRNA summed score (-2 to +2) = 0; inactive.
Against ACAP1 the deposit lists two-siRNA summed score (-2 to +2) = 0; inactive.

Individual results from the list.
Under “two-siRNA summed score (-2 to +2)”, TXNDC17 shows 1
Entry of CREB3L4 under “Outcome”: inactive
For “Outcome”, LOC253970 is entered as inactive
Entry for HSD17B6 in “Outcome”: inactive
For “Outcome”, PLCL1 has inactive

Continued.
Silencing of LOC402532 gave: two-siRNA summed score (-2 to +2) = 0; inactive.
Knock-down of NPIPB11 came out at: two-siRNA summed score (-2 to +2) = -1; inactive.
Against LOC283219, the values are two-siRNA summed score (-2 to +2) = 0; inactive.
Depletion of LOC442661 came out at: two-siRNA summed score (-2 to +2) = 0; inactive.
Against CUEDC1, the values are two-siRNA summed score (-2 to +2) = 0; inactive.
Knock-down of HSD11B1 came out at: two-siRNA summed score (-2 to +2) = -1; inactive.
Against OR2T2 the deposit lists two-siRNA summed score (-2 to +2) = 0; inactive.
Depletion of FLCN came out at: two-siRNA summed score (-2 to +2) = 0; inactive.
Depletion of RIOK2 gave: two-siRNA summed score (-2 to +2) = 0; inactive.
For CDK2AP2, the values are two-siRNA summed score (-2 to +2) = 0; inactive.
For OR5K4, the entry reads two-siRNA summed score (-2 to +2) = 0; inactive.
LOC389335 gave two-siRNA summed score (-2 to +2) = 0; inactive.
With knock-down of L3MBTL4 the results were two-siRNA summed score (-2 to +2) = 0; inactive.
PRELID1P5 gave two-siRNA summed score (-2 to +2) = 0; inactive.
Silencing of RAB9A came out at: two-siRNA summed score (-2 to +2) = 0; inactive.
Against YEATS4 the deposit lists two-siRNA summed score (-2 to +2) = -1; inactive.
Silencing of HNF1A gave: two-siRNA summed score (-2 to +2) = -1; inactive.
Knock-down of ADD2 gave: two-siRNA summed score (-2 to +2) = 0; inactive.
After knock-down of PCAT4, the screen gave two-siRNA summed score (-2 to +2) = 0; inactive.
